{"source": "PubChem BioAssay AID1259308 (NCATS, 2017)", "aim": "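Candidate targets for better recombinant protein yield in mammalian cells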 (primary screen)", "cell system": "human HEK293 embryonic kidney cells stably expressing firefly luciferase (HEK-CMV-Luc2-Hygro)", "reagent": "single siRNA against human genes, 0.8 pmol siRNA per well", "timing": "72 h", "measured": "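Luciferase light (ONE-Glo) measured on one replicate plate set and viability (CellTiter-Glo) on the other, scaled to a negative control siRNA, with robust z-scores and luciferase per cell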", "direction": "total luciferase, z-score and total luciferase, % of control: higher = more reporter protein produced", "hit rule": "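Active when the median/MAD z-score for overall luciferase is greater than 3; a gene was taken forward for validation with new siRNAs if at least two of its three siRNAs passed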", "calls": "active = raised luciferase; inactive = no rise", "note": "The deposit covers about 59,000 reagents; this is a part drawn at random. About 1,510 of all reagents (2.6%) were called active. 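Calls use total luciferase alone and ignore viability, so some active siRNAs may act by altering cell number.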 Unmarked entries are inactive. The numbers tell different reagents against one gene apart. Not all columns of the deposit are shown. Reagent sequences are not shown."}
{"Gene": "CXorf65 (GeneID 158830)", "siRNA no.": 1, "total luciferase, z-score": 1.13, "total luciferase, % of control": 104}
{"Gene": "CXorf65 (GeneID 158830)", "siRNA no.": 2, "total luciferase, z-score": -1.43, "total luciferase, % of control": 53.4}
{"Gene": "CXorf65 (GeneID 158830)", "siRNA no.": 3, "total luciferase, z-score": 1.72, "total luciferase, % of control": 116}
{"Gene": "RAB6C (GeneID 84084)", "siRNA no.": 1, "total luciferase, z-score": -1.17, "total luciferase, % of control": 58.6}
{"Gene": "RAB6C (GeneID 84084)", "siRNA no.": 2, "total luciferase, z-score": -0.556, "total luciferase, % of control": 70.8}
{"Gene": "RAB6C (GeneID 84084)", "siRNA no.": 3, "total luciferase, z-score": -1.59, "total luciferase, % of control": 50.2}
{"Gene": "NF1 (GeneID 4763)", "siRNA no.": 1, "total luciferase, z-score": 0.394, "total luciferase, % of control": 89.7}
{"Gene": "NF1 (GeneID 4763)", "siRNA no.": 2, "total luciferase, z-score": -1.3, "total luciferase, % of control": 56.1}
{"Gene": "NF1 (GeneID 4763)", "siRNA no.": 3, "total luciferase, z-score": 2.36, "total luciferase, % of control": 129}
{"Gene": "NF1 (GeneID 4763)", "siRNA no.": 4, "total luciferase, z-score": 1.41, "total luciferase, % of control": 110}
{"Gene": "NF1 (GeneID 4763)", "siRNA no.": 5, "total luciferase, z-score": -0.666, "total luciferase, % of control": 68.6}
{"Gene": "NF1 (GeneID 4763)", "siRNA no.": 6, "total luciferase, z-score": -0.618, "total luciferase, % of control": 69.6}

Continued; the last 4 above are carried over.
{"Gene": "NF1 (GeneID 4763)", "siRNA no.": 3, "total luciferase, z-score": 2.36, "total luciferase, % of control": 129}
{"Gene": "NF1 (GeneID 4763)", "siRNA no.": 4, "total luciferase, z-score": 1.41, "total luciferase, % of control": 110}
{"Gene": "NF1 (GeneID 4763)", "siRNA no.": 5, "total luciferase, z-score": -0.666, "total luciferase, % of control": 68.6}
{"Gene": "NF1 (GeneID 4763)", "siRNA no.": 6, "total luciferase, z-score": -0.618, "total luciferase, % of control": 69.6}
{"Gene": "GSE1 (GeneID 23199)", "siRNA no.": 1, "total luciferase, z-score": -0.258, "total luciferase, % of control": 76.8}
{"Gene": "GSE1 (GeneID 23199)", "siRNA no.": 2, "total luciferase, z-score": -0.299, "total luciferase, % of control": 75.9}
{"Gene": "GSE1 (GeneID 23199)", "siRNA no.": 3, "total luciferase, z-score": -1.09, "total luciferase, % of control": 60.3}
{"Gene": "PRKACG (GeneID 5568)", "siRNA no.": 1, "total luciferase, z-score": 2.16, "total luciferase, % of control": 125}
{"Gene": "PRKACG (GeneID 5568)", "siRNA no.": 2, "total luciferase, z-score": 1.26, "total luciferase, % of control": 107}
{"Gene": "PRKACG (GeneID 5568)", "siRNA no.": 3, "total luciferase, z-score": 0.722, "total luciferase, % of control": 96.2}
{"Gene": "ARL14 (GeneID 80117)", "siRNA no.": 1, "total luciferase, z-score": 0.413, "total luciferase, % of control": 90.1}
{"Gene": "ARL14 (GeneID 80117)", "siRNA no.": 2, "total luciferase, z-score": 0.285, "total luciferase, % of control": 87.6}
{"Gene": "ARL14 (GeneID 80117)", "siRNA no.": 3, "total luciferase, z-score": -1.21, "total luciferase, % of control": 57.9}
{"Gene": "OR2AG2 (GeneID 338755)", "siRNA no.": 1, "total luciferase, z-score": -1.73, "total luciferase, % of control": 47.4}
{"Gene": "OR2AG2 (GeneID 338755)", "siRNA no.": 2, "total luciferase, z-score": 0.768, "total luciferase, % of control": 97.2}
{"Gene": "OR2AG2 (GeneID 338755)", "siRNA no.": 3, "total luciferase, z-score": -0.386, "total luciferase, % of control": 74.2}
{"Gene": "G3BP2 (GeneID 9908)", "siRNA no.": 1, "total luciferase, z-score": -0.167, "total luciferase, % of control": 78.6}
{"Gene": "G3BP2 (GeneID 9908)", "siRNA no.": 2, "total luciferase, z-score": -0.0432, "total luciferase, % of control": 81}
{"Gene": "G3BP2 (GeneID 9908)", "siRNA no.": 3, "total luciferase, z-score": 0.703, "total luciferase, % of control": 95.9}
{"Gene": "LHPP (GeneID 64077)", "siRNA no.": 1, "total luciferase, z-score": -0.51, "total luciferase, % of control": 71.7}
{"Gene": "LHPP (GeneID 64077)", "siRNA no.": 2, "total luciferase, z-score": -0.64, "total luciferase, % of control": 69.2}
{"Gene": "LHPP (GeneID 64077)", "siRNA no.": 3, "total luciferase, z-score": -0.0625, "total luciferase, % of control": 80.6}
{"Gene": "GGA3 (GeneID 23163)", "siRNA no.": 1, "total luciferase, z-score": -0.726, "total luciferase, % of control": 67.5}
{"Gene": "GGA3 (GeneID 23163)", "siRNA no.": 2, "total luciferase, z-score": -0.451, "total luciferase, % of control": 72.9}
{"Gene": "GGA3 (GeneID 23163)", "siRNA no.": 3, "total luciferase, z-score": 1.47, "total luciferase, % of control": 111}
